According to PubChem BioAssay AID1296 (Columbia University Molecular Screening Center, 2008):
The campaign covered roughly 130,000 compounds. About 1,000 (0.77%) were called active. Inconclusive results, whose numbers are uncertain, are shown with a selection of clear calls.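 Rule for the calls: active = activation at 2 µM above a set limit, confirmed on inspection of the cell images; inconclusive = above the set limit but not confirmed on image inspection; inactive = the rest.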

Experiment: activators of insulin promoter-driven GFP, primary screen, imaging, TRM-6 cells (human fetal islet line), eGFP reporter, cell count (AID 1296;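 note: share of cells whose green reporter signal exceeds an intensity cutoff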)
Details: at 2 µM, stronger effect = higher value, plate-scaled: unstimulated 0, stimulated control 100
How it was run: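 Material: TRM-6 insulin promoter–eGFP reporter cells. Buffer or medium: Low-glucose (5.5 mM) medium with tamoxifen. Probe or stimulus: tamoxifen at 0.75 µM added at seeding for reporter induction. Times: tamoxifen pre-incubation 15 h overnight, then compound exposure 48 h at 37 °C. Detection: high-content imaging of fixed cells with Hoechst nuclear stain.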

SMILES	activation
Cc1cc(Nc2ccccc2)n(CCO)n1	active: 543%
Cc1ccc(C(=O)Nc2ccccc2-c2ccccc2)o1	inconclusive: 76.7%
Cc1oc(-c2cccc(Cl)c2)nc1CN1CCCC(C(=O)NCCCN2CCOCC2)C1 (stereo unspecified)	inconclusive: 136%
Clc1cccc(Cl)c1Cn1cnc2c(N3CCCCCC3)ncnc21	inconclusive: 456%
CCn1cc([N+](=O)[O-])c(C(=O)N2N=C(c3cccc4ccccc34)CC2c2ccccc2O)n1 (stereo unspecified)	inconclusive: 400%
COc1ccc(Cl)cc1C(=O)NCCN(C)C	inconclusive: 464%
CCn1c(=O)cc(SCC(=O)N2CCOCC2)c2ccccc21	inconclusive: 82.9%
OCCN(Cc1ccccc1)Cc1cccc(F)c1	active: 81.3%
C=CCN1C(=O)c2cccc3c(N4CCCCC4)ccc(c23)C1=O	active: 669%
Cc1ccccc1NC(=O)c1cccc2nc3ccccc3nc12	active: 233%
C/C(=N\NC(=O)c1c(C)nc2ccccn12)c1ccco1	inactive: -72.7%
CC(=O)Nc1ccnc(-c2cccnc2)n1	active: 187%
COc1cccc(OC)c1C(=O)Nc1ccc(Cc2ccncc2)cc1	inactive: 6.67%
CC(C)C(c1nnnn1Cc1ccc2c(c1)OCO2)N1CCN(C)CC1 (stereo unspecified)	inconclusive: 406%
OCc1nc2ccccc2n1CCCOc1ccc(Br)cc1	inactive: -12.4%
Cc1ccc(S(=O)(=O)Oc2ccccc2/C=N/NC(N)=S)cc1	active: 103%
CN1CCN(C(=O)CN(Cc2ccc(Cl)cc2)S(C)(=O)=O)CC1	active: 579%
Cc1cccc(Cn2nc(-n3cccc3)c3c(C)cc(C)nc32)c1	inconclusive: 209%
CCOc1ccccc1OCC(=O)Nc1nnc(COC)s1	inactive: -8.57%
Cc1ccc(NC(=O)c2cc(N3C(=O)C=CC3=O)ccc2N2CCOCC2)cc1Cl	inconclusive: 270% [cytotoxic]
CC1CCN(S(=O)(=O)c2cccc(S(=O)(=O)N3CCOCC3)c2)CC1	inconclusive: 83.3%

SMILES	activation
CCOC(=O)C1(Cc2ccccc2C)CCCN(Cc2cc(OC)c(O)c(OC)c2)C1 (stereo unspecified)	inactive: 7.14%
CC[n+]1ccccc1/C=C/c1ccc(N(C)C)cc1	inconclusive: 200%
CC(C)Oc1ccccc1C1CC(=O)Nc2cc3c(cc21)OCO3 (stereo unspecified)	inconclusive: 300% [cytotoxic]
O=C(CCn1cccc1)NCc1ccc(Cl)cc1	inconclusive: 127%
C=CCOc1cccc(C2C(C(=O)c3ccco3)=C(O)C(=O)N2Cc2ccncc2)c1 (stereo unspecified)	inconclusive: 542%
O=C(NCc1ccco1)C1CC2CCC1C2 (stereo unspecified)	inactive: 0%
CN1CCN(NC(=O)c2cc(S(=O)(=O)N3CCOCC3)c(Cl)cc2Cl)CC1	inactive: -2.78%
CCn1c(C)nc2cc(C(=O)n3cc(C(=O)c4ccccc4O)cn3)ccc21	inconclusive: 233%
COC(=O)c1c(C(=O)OC)n(CCCN)c2ccc(C)cc12	inconclusive: 410%
Cc1ccc(CNn2cnnc2SCc2ccc(F)cc2)cc1	inconclusive: 450%
O=C1c2ccccc2C(=O)N1CC(O)CN1CCOCC1 (stereo unspecified)	active: 533%
CCOc1ccc(CC(=O)Nc2ccc(NC(=O)c3ccco3)cc2)cc1OCC	active: 100%
CCOc1ccc(N2C(=O)C(c3ccccc3)=C(c3nc4ccccc4s3)C2NC(C)=O)cc1 (stereo unspecified)	inconclusive: 453%
Cc1ccc(NCC(O)C(O)C(O)CO)cc1C (stereo unspecified)	active: 427%
CCCCC(=O)NS(=O)(=O)c1ccc(NS(C)(=O)=O)cc1	inactive: 6.45%
COc1ccc(S(=O)(=O)N(C)CC(=O)Nc2ccc(C(F)(F)F)cc2)cc1Cl	inactive: 0%
COc1cc(C=C2C(=O)c3ccccc3C2=O)cc(OC)c1OC	inconclusive: 404%
CNc1nc(SC)nc(N2CCOCC2)n1	inconclusive: 81.1%
C=CCn1c(O)c(N=NC(=S)Nc2ccccc2C)c2cc(S(=O)(=O)N3CCOCC3)ccc21	inconclusive: 306% [cytotoxic]
Cn1c(SCC(=O)O)nc2ccccc2c1=O	inconclusive: 164%
O=S(=O)(c1ccccc1F)N(Cc1ccco1)Cc1nnc(-c2ccccc2Br)o1	inactive: 7.14%

In the list so far, 4 have two or more sulfur atoms:
SMILES	activation
Cc1ccc(S(=O)(=O)Oc2ccccc2/C=N/NC(N)=S)cc1	active: 103%
CC1CCN(S(=O)(=O)c2cccc(S(=O)(=O)N3CCOCC3)c2)CC1	inconclusive: 83.3%
CCCCC(=O)NS(=O)(=O)c1ccc(NS(C)(=O)=O)cc1	inactive: 6.45%
C=CCn1c(O)c(N=NC(=S)Nc2ccccc2C)c2cc(S(=O)(=O)N3CCOCC3)ccc21	inconclusive: 306% [cytotoxic]

Continuation:

SMILES	activation
COc1ccc(NC(=O)C(c2ccc(C)cc2)N(C)C(=O)Cc2cccs2)cc1 (stereo unspecified)	inconclusive: 343%
O=C(Nc1ccc(Cl)cc1C(=O)Nc1ccc(Br)cn1)c1ccco1	active: 600%
CCCCN(CC)CCNC(=O)c1cn(-c2ccc(Cl)cc2)c(=O)c2ccccc12	inconclusive: 76.5%
COc1ccccc1CN(Cc1nc2ccccc2c(=O)[nH]1)S(=O)(=O)c1ccc(C)cc1	inconclusive: 116%
COc1cc2ncnc(NCc3ccc(C)cc3)c2cc1OC	active: 230%
COn1c(SCc2ccc(Cl)cc2)nc2ccccc2c1=O	active: 77.1%
O=C(Nc1ccc(N2CCCC2)cc1)c1ccc(Br)o1	inconclusive: 84.2%
COc1cc(/C=C2\SC(=S)N(CC(=O)NC(C)(C)C)C2=O)cc(OC)c1OC	inconclusive: 362%
CSc1nsc(/C=C/Nc2ccc(F)cc2)c1C#N	inconclusive: 646%
Cc1cccc(NC(=O)C2CCCN(C(=O)Nc3ccccc3)C2)c1C (stereo unspecified)	inactive: 5.41%
Cc1c(Cl)cccc1-n1c(SCC(=O)NCc2ccccc2Cl)nnc1-c1ccncc1	inactive: 0%
CCOc1ccccc1-n1c(SCC(=O)NCc2ccco2)nnc1-c1ccncc1	inconclusive: 86.7%
O=C(c1ccccc1)c1cc(Cl)ccc1N1C(=O)C=CC1=O	inconclusive: 733% [cytotoxic]
COc1ccc(NC(=O)CSc2nnc(-c3ccccn3)n2-c2ccccc2)cc1OC	inconclusive: 464%
O=C(NCc1ccco1)C(c1ccncc1)N(C(=O)Cc1cccs1)c1ccccc1 (stereo unspecified)	inconclusive: 182%
O=C(Nc1cnn(Cc2ccc(Cl)cc2)c1)C1CCCC1	inconclusive: 481%
O=S(=O)(Nc1cccc2nsnc12)c1ccccc1	inconclusive: 479%
CCOCCCNC(=O)CN1C(=O)/C(=C/c2ccccc2)Sc2ccccc21	active: 313%
CCOc1ccccc1OCC(=O)Nc1ccc(N2CCCCC2)cc1	inconclusive: 419%
